The other results are listed elsewhere or left out.
What was measured:
Experiment in all cases: glycan array binding signal (z-score within array); higher = stronger binding
Settings in all cases: glycan notation: IUPAC condensed, linker removed
[1] = target: Fuc(a1-2)[Gal(a1-3)]Gal(b1-4)GlcNAc(b1-2)Man(a1-3)[Fuc(a1-2)[Gal(a1-3)]Gal(b1-4)GlcNAc(b1-2)Man(a1-6)]Man(b1-4)GlcNAc(b1-4)[Fuc(a1-6)]GlcNAc
Procedure, shortened: (§1)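 Negative Z-scores can be read as non-binding. The Z-score is calculated within each array and then averaged across arrays of one protein sequence at different concentrations or buffers and across linkers. Arrays, 3228 in all, were curated from the Consortium for Functional Glycomics database and kept only where the protein sequence was available.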

[2] = target: Fuc(a1-2)[Gal(a1-3)]Gal(b1-4)GlcNAc(b1-3)GalNAc
Procedure, shortened: as §1

[3] = target: Fuc(a1-2)[Gal(a1-3)]Gal(b1-4)GlcNAc(b1-3)[Fuc(a1-2)[Gal(a1-3)]Gal(b1-4)GlcNAc(b1-6)]GalNAc
Procedure, shortened: as §1

[4] = target: Fuc(a1-2)[Gal(a1-3)]Gal(b1-4)GlcNAc(b1-6)GalNAc
Procedure, shortened: as §1

[5] = target: Fuc(a1-2)[Gal(a1-3)]Gal(b1-4)[Fuc(a1-3)]Glc
Procedure, shortened: as §1

[6] = target: Fuc(a1-2)[Gal(a1-3)]Gal(b1-4)[Fuc(a1-3)]GlcNAc
Procedure, shortened: as §1

[7] = target: Fuc(a1-2)[Gal(a1-3)]Gal(b1-4)[Fuc(a1-3)]GlcNAc(b1-3)GalNAc
Procedure, shortened: as §1

[8] = target: Fuc(a1-2)[Gal(a1-4)]Gal(b1-4)GlcNAc
Procedure, shortened: as §1

[9] = target: Fuc(a1-2)[GalNAc(a1-3)]Gal
Procedure, shortened: as §1

[10] = target: Fuc(a1-2)[GalNAc(a1-3)]Gal(b1-3)GalNAc(a1-3)[Fuc(a1-2)]Gal(b1-4)GlcNAc
Procedure, shortened: as §1

[11] = target: Fuc(a1-2)[GalNAc(a1-3)]Gal(b1-3)GalNAc(b1-3)Gal(a1-4)Gal(b1-4)Glc
Procedure, shortened: as §1

[12] = target: Fuc(a1-2)[GalNAc(a1-3)]Gal(b1-3)GlcNAc
Procedure, shortened: as §1

[13] = target: Fuc(a1-2)[GalNAc(a1-3)]Gal(b1-3)GlcNAc(b1-2)Man(a1-3)[Fuc(a1-2)[GalNAc(a1-3)]Gal(b1-3)GlcNAc(b1-2)Man(a1-6)]Man(b1-4)GlcNAc(b1-4)GlcNAc
Procedure, shortened: as §1

[14] = target: Fuc(a1-2)[GalNAc(a1-3)]Gal(b1-3)GlcNAc(b1-2)Man(a1-3)[Fuc(a1-2)[GalNAc(a1-3)]Gal(b1-3)GlcNAc(b1-2)Man(a1-6)]Man(b1-4)GlcNAc(b1-4)[Fuc(a1-6)]GlcNAc
Procedure, shortened: as §1

[15] = target: Fuc(a1-2)[GalNAc(a1-3)]Gal(b1-3)GlcNAc(b1-3)GalNAc
Procedure, shortened: as §1

[16] = target: Fuc(a1-2)[GalNAc(a1-3)]Gal(b1-3)GlcNAc(b1-6)GalNAc
Procedure, shortened: as §1

[17] = target: Fuc(a1-2)[GalNAc(a1-3)]Gal(b1-4)Glc
Procedure, shortened: as §1

[18] = target: Fuc(a1-2)[GalNAc(a1-3)]Gal(b1-4)GlcNAc
Procedure, shortened: as §1

[19] = target: Fuc(a1-2)[GalNAc(a1-3)]Gal(b1-4)GlcNAc(b1-2)Man
Procedure, shortened: as §1

[20] = target: Fuc(a1-2)[GalNAc(a1-3)]Gal(b1-4)GlcNAc(b1-2)Man(a1-3)[Fuc(a1-2)[GalNAc(a1-3)]Gal(b1-4)GlcNAc(b1-2)Man(a1-6)]Man(b1-4)GlcNAc(b1-4)GlcNAc
Procedure, shortened: as §1

[21] = target: Fuc(a1-2)[GalNAc(a1-3)]Gal(b1-4)GlcNAc(b1-2)Man(a1-3)[Fuc(a1-2)[GalNAc(a1-3)]Gal(b1-4)GlcNAc(b1-2)Man(a1-6)]Man(b1-4)GlcNAc(b1-4)[Fuc(a1-6)]GlcNAc
Procedure, shortened: as §1

[22] = target: Fuc(a1-2)[GalNAc(a1-3)]Gal(b1-4)GlcNAc(b1-3)Gal(b1-4)GlcNAc
Procedure, shortened: as §1

[23] = target: Fuc(a1-2)[GalNAc(a1-3)]Gal(b1-4)GlcNAc(b1-3)Gal(b1-4)GlcNAc(b1-3)Gal(b1-4)GlcNAc
Procedure, shortened: as §1

[24] = target: Fuc(a1-2)[GalNAc(a1-3)]Gal(b1-4)GlcNAc(b1-3)GalNAc
Procedure, shortened: as §1

[25] = target: Fuc(a1-2)[GalNAc(a1-3)]Gal(b1-4)GlcNAc(b1-3)[Fuc(a1-2)[GalNAc(a1-3)]Gal(b1-4)GlcNAc(b1-6)]GalNAc
Procedure, shortened: as §1

[26] = target: Fuc(a1-2)[GalNAc(a1-3)]Gal(b1-4)GlcNAc(b1-6)GalNAc
Procedure, shortened: as §1

[27] = target: Fuc(a1-2)[GalNAc(a1-3)]Gal(b1-4)[Fuc(a1-3)]GlcNAc
Procedure, shortened: as §1

[28] = target: Fuc(a1-2)[GalNAc(a1-3)]Gal(b1-4)[Fuc(a1-3)]GlcNAc(b1-3)GalNAc
Procedure, shortened: as §1

[29] = target: Fuc(a1-2)[GalNAc(a1-4)]Gal(b1-4)GlcNAc
Procedure, shortened: as §1

[30] = target: Fuc(a1-2)[GalNAc(b1-3)]Gal
Procedure, shortened: as §1

B1: PX9961KLbvu-535-38-535 (Bacteroides vulgatus) (protein)
chain: DKAYTDAESYTKGLHKIYSVWALSGQDGSSSSDISGLDAGNTALLRCWWTLQEQPTDEMKNAWNDAWCTEVNYMTWTTNKVEPIEGVYQRCMYIVALVNEFLKNIPNAPESIDKESYIAQARFNRAFAYYVLMDMFALPPFITEKNYSIEPAPLSREDLFNWIEAELNEIKPNLPSPRSEYGVADQAVASALLARMYLNAEIYTGKARYTECINACNEVIKAGYQLADNYADLFKADNGENPDTKKEIIYPIIFDGDKTQSWGMAAIIIGARGAEDKDVLLAHSGVDQGWAGFRATSNLVHLFDFQNDEEPKASEIQDKRGIFYDKGRSIDITSSVSGTFETEGWSVFKFSNLNSNGQPGKNTLWVDTDFPMFRLGDIYLMYAEAVARGGEGSKASAVEYINALRKRAYGDDKHNISENWLEENNFRNLLDERGRELYWEGIRRTDLVRFDLLTSGSYTWDFKGGINTGVGVNKRYNVYPIPVTDLTVNGNLQQNEGY
glycan array binding signal (z-score) [1]: -0.013
glycan array binding signal (z-score) [2]: -0.263
glycan array binding signal (z-score) [3]: -0.09
glycan array binding signal (z-score) [4]: -0.819
glycan array binding signal (z-score) [5]: -0.09
glycan array binding signal (z-score) [6]: 0.203
glycan array binding signal (z-score) [7]: 0.007
glycan array binding signal (z-score) [8]: -0.189
glycan array binding signal (z-score) [9]: -0.346
glycan array binding signal (z-score) [10]: -0.903
glycan array binding signal (z-score) [11]: 0.178
glycan array binding signal (z-score) [12]: -0.416
glycan array binding signal (z-score) [13]: 0.702
glycan array binding signal (z-score) [14]: -0.202
glycan array binding signal (z-score) [15]: -0.113
glycan array binding signal (z-score) [16]: -0.798
glycan array binding signal (z-score) [17]: -0.447
glycan array binding signal (z-score) [18]: -0.625
glycan array binding signal (z-score) [19]: -0.155
glycan array binding signal (z-score) [20]: 0.336
glycan array binding signal (z-score) [21]: 0.275
glycan array binding signal (z-score) [22]: -0.947
glycan array binding signal (z-score) [23]: 0.285
glycan array binding signal (z-score) [24]: 0.112
glycan array binding signal (z-score) [25]: 0.033
glycan array binding signal (z-score) [26]: -0.507
glycan array binding signal (z-score) [27]: -0.506
glycan array binding signal (z-score) [28]: -0.162
glycan array binding signal (z-score) [29]: -0.165
glycan array binding signal (z-score) [30]: -0.334

Source: the supplement of paper PMC8728848
